The values below come from article PMC3368869.

The chains behind the UniProt entries cited, without tags or fusion partners. Where a name states a change or a piece, a line headed by the entry shows the natural chain unless it says otherwise.
UniProt Q9VJZ5: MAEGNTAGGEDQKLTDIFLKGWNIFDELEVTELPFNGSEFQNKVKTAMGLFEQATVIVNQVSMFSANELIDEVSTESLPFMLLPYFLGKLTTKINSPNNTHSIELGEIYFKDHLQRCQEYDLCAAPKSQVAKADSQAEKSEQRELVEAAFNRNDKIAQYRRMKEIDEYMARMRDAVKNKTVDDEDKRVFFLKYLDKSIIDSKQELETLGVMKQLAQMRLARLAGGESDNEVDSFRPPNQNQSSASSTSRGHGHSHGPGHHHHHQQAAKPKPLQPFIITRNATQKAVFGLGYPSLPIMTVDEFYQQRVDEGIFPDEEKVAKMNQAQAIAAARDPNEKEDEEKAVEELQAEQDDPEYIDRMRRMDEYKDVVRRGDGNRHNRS
UniProt P23696: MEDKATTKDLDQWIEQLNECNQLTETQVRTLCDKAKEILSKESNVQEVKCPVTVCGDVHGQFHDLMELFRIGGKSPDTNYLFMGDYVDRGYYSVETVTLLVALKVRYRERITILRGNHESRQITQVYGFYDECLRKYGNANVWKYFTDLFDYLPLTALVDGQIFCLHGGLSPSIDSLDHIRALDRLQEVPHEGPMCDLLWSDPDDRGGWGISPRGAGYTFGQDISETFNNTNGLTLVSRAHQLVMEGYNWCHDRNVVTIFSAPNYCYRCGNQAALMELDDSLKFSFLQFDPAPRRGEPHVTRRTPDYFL

These are yes or no findings as the source states them, for the method shown. In cells and extracts the contact can be indirect. For some assays here: Binding can be weak; no strength is given.

Experiment [1] addresses FLAG3-Tap42^WT (wild type Drosophila Tap42) (Drosophila melanogaster) (UniProt Q9VJZ5). Description: co-IP; FLAG immunoprecipitation (anti-FLAG-agarose, overnight at 4°C) from clarified lysates of transfected Drosophila S2 cells; lysis buffer 20 mM Tris-HCl pH 8.0, 150 mM NaCl, 1% Igepal, protease inhibitors; Western blot with epitope tag antibodies. A general note: In western blotting, separated proteins are transferred to a membrane and probed.

For experiment [2], the target named is FLAG3-Tap42^ED (phosphatase binding-defective mutant of Tap42, R152E K155D) (Drosophila melanogaster). The description is as above.

As for “HA3-Mts (Drosophila PP2A catalytic subunit) (from UniProt P23696 1-309) (enzyme)”, the binding entry in experiment [1] was “binds”.

B1: HA3-PP4 (Drosophila PP4 catalytic subunit) (enzyme, UniProt O76932 1-307)
chain: MSDYSDLDRQIEQLKRCEIIKENEVKALCAKAREILVEEGNVQRVDSPVTVCGDIHGQFYDLKELFKVGGDVPEKNYLFMGDFVDRGYYSVETFLLLLALKVRYPDRITLIRGNHESRQITQVYGFYDECLRKYGSTAVWRYCTEIFDYLSLSAIIDGKIFCVHGGLSPSIQYLDQIRSIDRKQEVPHDGPMCDLLWSDPEDQTGWGVSPRGAGYLFGSDVVSQFNRTNDIDMICRAHQLVMEGFKWHFNETVLTVWSAPNYCYRCGNVAAILELNEYLHRDFVIFEAAPQESRGIPSKKPQADYFL
With B1, the binding result in experiment [2] was “no binding”; in experiment [1], “binds”.

B2: HA3-PPV (Drosophila PP6 catalytic subunit) (enzyme, UniProt Q27884 1-303)
chain: MGDVDKWIEDVKKCKYLPENELKKLCEMVCDILLEETNILPVSTPVTVCGDIHGQFYDLEQLFRTGGQVPHTNYIFMGDFVDRGYYSLETFTRLLTLKARYPSRITLLRGNHETRQITKVYGFFDECFSKYGNANGWKYCCKVFDLLTIAAIIDEEVLCVHGGLSPEIITLDQIRTIDRNGEIPYKGAFCDLVWSDPEDMEYWGQSPRGAGWLFGHNVTKDFMAINNLNLICRAHQLVNEGIKYMFDGKLVTVWSAPNYCYRCGNVAAILSFETAEKRQTKIFLAVPDAERVIPKQNTTPYFL
On to B2, for which the binding result in experiment [2] was “no binding”; in experiment [1] it was “binds”.
